PubChem BioAssay AID743454, Peter MacCallum Cancer Centre – 2014

Purpose: 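Knock-downs lowering viability or raising caspase 3/7 activity in vorinostat-treated resistant cells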 (primary screen)
System: human HCT116-VR colon cancer cells, selected for vorinostat resistance
Knock-down reagent: siRNA pool against human genes, 40 nM siRNA pool
Timing: vorinostat for 24 h, read-out about 72 h after transfection
Challenge: vorinostat at 2.5 µM final
Measurement: 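Two measures, CellTiter-Fluor viability and luminescent caspase 3/7 activity, each as fold change against same-plate mock wells, mean of duplicates, then screen-wide robust z-score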
Reading the numbers: viability robust z-score: higher = more viable cells than screen typical; caspase robust z-score: higher = more caspase 3/7 activity than screen typical
Active means: 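Hits are knock-downs in viability class RV1/RV2 or caspase class CA1/CA2, excluding ones that killed cells in the no-drug cell-count arm; hits then retested with single siRNAs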
Shown is a random part of about 18,000 reagents. 450 of them (2.5%) were called active. 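Single biological run; no consistent viability z cut-off exists, so the class columns, not z-scores, define the calls.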

Gene	PubChem SID	viability hit class	caspase hit class	viability robust z-score	caspase robust z-score	activity call
PADI2 (GeneID 11240)	SID152151833	no change	no change	1	2.29	inactive
OR4K17 (GeneID 390436)	SID135624903	no change	no change	1.43	-0.84	inactive
TSACC (GeneID 128229)	SID152150595	no change	no change	0.96	1.8	inactive
CA5B (GeneID 11238)	SID152155828	no change	no change	-0.5	-0.27	inactive
SCARB2 (GeneID 950)	SID134316384	no change	no change	1.36	-0.44	inactive
GPR84 (GeneID 53831)	SID134311044	no change	no change	-1.21	2.59	inactive
PRAMEF10 (GeneID 343071)	SID135624229	no change	no change	0.3	2.64	inactive
CIAO3 (GeneID 64428)	SID134318280	no change	no change	-0.54	-0.94	inactive
AGT (GeneID 183)	SID152155291	no change	no change	-0.33	0.3	inactive
GAPT (GeneID 202309)	SID152149923	no change	no change	0.57	-0.96	inactive
LIN52 (GeneID 91750)	SID152150000	no change	no change	0.44	1.38	inactive
PSG2 (GeneID 5670)	SID135622800	no change	no change	0.46	-1.13	inactive
DMWD (GeneID 1762)	SID152152656	no change	no change	0.21	0.28	inactive
CLIC2 (GeneID 1193)	SID152150600	no change	no change	0.41	0.13	inactive
TEX2 (GeneID 55852)	SID134321076	no change	no change	-0.9	-0.31	inactive
WDR20 (GeneID 91833)	SID134324908	no change	no change	0.17	1.04	inactive
DNAJB2 (GeneID 3300)	SID135623376	no change	no change	1.41	-0.12	inactive
INTS8 (GeneID 55656)	SID135623956	no change	no change	-0.32	-0.17	inactive
NCOA7 (GeneID 135112)	SID134322697	no change	no change	-0.34	2.64	inactive
MYH9 (GeneID 4627)	SID152151156	no change	no change	-2.77	-1.19	inactive
STAC3 (GeneID 246329)	SID134319884	no change	no change	0.54	0.56	inactive
KHDRBS1 (GeneID 10657)	SID134323766	no change	no change	-1.94	1.87	inactive
TSPAN13 (GeneID 27075)	SID152152934	no change	no change	0.42	-0.9	inactive
NAT14 (GeneID 57106)	SID134314242	no change	no change	-1	-0.74	inactive
GOLPH3 (GeneID 64083)	SID134311778	no change	no change	0.42	-0.4	inactive

Quoted from the entries so far, 3 entries:
Gene	PubChem SID	viability hit class	caspase hit class	viability robust z-score	caspase robust z-score	activity call
SCARB2 (GeneID 950)	SID134316384	no change	no change	1.36	-0.44	inactive
GPR84 (GeneID 53831)	SID134311044	no change	no change	-1.21	2.59	inactive
PRAMEF10 (GeneID 343071)	SID135624229	no change	no change	0.3	2.64	inactive

Additional records follow.
Gene	PubChem SID	viability hit class	caspase hit class	viability robust z-score	caspase robust z-score	activity call
SMARCA1 (GeneID 6594)	SID152151993	no change	no change	-0.05	0.02	inactive
SCLY (GeneID 51540)	SID135623291	no change	CA2 (caspase activation)	-2.26	7.74	active
SASH1 (GeneID 23328)	SID134318234	no change	no change	0.15	-0.42	inactive
CRLF1 (GeneID 9244)	SID134312801	no change	no change	-0.47	3.58	inactive
VTCN1 (GeneID 79679)	SID152155673	no change	no change	0.81	0.15	inactive
NUFIP1 (GeneID 26747)	SID134323383	no change	no change	0.58	-0.42	inactive
CCL24 (GeneID 6369)	SID134312775	no change	no change	-0.2	-0.08	inactive
OR2T12 (GeneID 127064)	SID135624238	no change	no change	-1.19	3.44	inactive
IL16 (GeneID 3603)	SID152148873	no change	no change	0.06	0.27	inactive
SLURP1 (GeneID 57152)	SID134317422	no change	no change	-0.75	4.19	inactive
GOLGA6B (GeneID 55889)	SID152147534	no change	no change	-1.23	-0.25	inactive
ZNRF4 (GeneID 148066)	SID135621325	no change	no change	0.6	4.42	inactive
IFITM3 (GeneID 10410)	SID135622676	no change	no change	0.37	0.38	inactive
NDUFS8 (GeneID 4728)	SID134323378	no change	no change	0.18	-0.02	inactive
